# Assay results as given in PubChem BioAssay AID1347423 (Functional Genomics Laboratory (NCATS/FGL), 2020).
# Out of some 52,000 sequences screened, about 210 (0.4%) were called active.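 The calls were made as follows: active = gene whose silencing raises cell survival under the drug, median off-target-corrected z-score across its silencing RNAs 2 or more; inactive = the rest.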 The list shows a part of the results.
# Test: Resistance to Poly (ADP-Ribose) Polymerase inhibitor: Gene Identification via Genome-wide siRNA Screen
# Conditions: mouse BRCA2 R2336H ES cells, olaparib, CellTiter-Glo viability; stronger effect = higher value
# Outline: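 Genome-wide siRNA screen (3 siRNAs/gene, 20 nM) in mouse ES cells carrying hypomorphic BRCA2 R2336H; olaparib 500 nM added 48 h post-transfection, CellTiter-Glo viability 72 h later. Normalized to plate-median negative control; MAD z-scores, gene median, seed-adjusted.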
row,Sequence,z-score
1,CCCUGUACACAGAAGGACATT against Tmem15,inactive: -0.551
2,GGCUGGAAGACAAAACUCCTT against Lmo6,inactive: -0.83
3,GGAAAAUUGGUACCAACUUTT against 1300002C08Rik,inactive: -0.242
4,GGGAAUUUACUGCAGGAUATT against Itln2,inactive: -0.711
5,GGUUGACACAGAUGAAGAGTT against Rdh9,inactive: -0.356
6,GGAGAAACAGCCUAAGAAGTT against Pacsin1,inactive: 2.69
7,CGAUGGUCUAAGUGAAGCGTT against 2810002O09Rik,inactive: -1.41
8,GCCUUGAAAUGUCUGUAGCTT against Nkiras1,inactive: 0.46
9,GGCUGAUUUGCAUAUCGGGTT against Ethe1,inactive: -0.725
10,GGAAUUCACAUUUGACUGUTT against D230002A01Rik,inactive: -0.639
11,GGUGUACCAUAGAUGAUCGTT against 3732419F12,inactive: -0.886
12,GCAAGAACAGCCCUUUCACTT against Ncf4,inactive: 0.0626
13,GCCAUAUUGAGGUGAAAGATT against Tnc,inactive: 1.17
14,GUGACCACUCUGCCAAUUGTT against Olfr1255,inactive: -0.513
15,GGCGGAUCAGCUGUAUAAGTT against Pdha1,inactive: -0.318
16,GGAAACUUAAGCAAAUUCUTT against Gprc6a,inactive: 0.294
17,UACGGGCUGAACAUGUGCCTT against Rps29,inactive: -1.27
18,GGUUGCAUUUUUGGAUUUATT against Fbxw2,inactive: 1.37
19,CCAAUUGAGAAUAAACUCATT against Gnrhr,inactive: 0.297
20,GCUCUACCCAAUCAAGACCTT against Asb14,inactive: 0.715
21,GCACAAAUCUGGUAAGUCATT against Gtf2h1,inactive: -2.5
22,GGAAAAAAUGGAAAACUGGTT against Rpo1-2,inactive: 0.324
23,GGGAAGCUAUCUGAAUGCGTT against Otoa,inactive: 0.816
24,CCAUUACAUCAGCUUUAUUTT against E430002G05Rik,inactive: 0.728
25,GGACAUUGAGGACUAUGACTT against Grk1,inactive: -1.18
26,GGAUACAAUCCUUUUGGAUTT against Dnajb1,inactive: 0.674
27,GAGUGUCCGAUAGACCGUUTT against Rbm4,inactive: 1.85
28,CCUUCACAUAAGUUUCUGUTT against 1200013B22Rik,inactive: -0.482
29,GCUUUUCCUACCGUAAGCCTT against BC025546,inactive: -1.84

# An excerpt of these results, bar-delimited:
row | Sequence | z-score
16 | GGAAACUUAAGCAAAUUCUTT against Gprc6a | inactive: 0.294
17 | UACGGGCUGAACAUGUGCCTT against Rps29 | inactive: -1.27
18 | GGUUGCAUUUUUGGAUUUATT against Fbxw2 | inactive: 1.37
19 | CCAAUUGAGAAUAAACUCATT against Gnrhr | inactive: 0.297
20 | GCUCUACCCAAUCAAGACCTT against Asb14 | inactive: 0.715
21 | GCACAAAUCUGGUAAGUCATT against Gtf2h1 | inactive: -2.5
